Results on two molecules are retold here after article PMC9493395.

For assay [1], the target named is T1, FAM83A (family with sequence similarity 83 A), wild type, FLAG-tagged (Mus musculus) (UniProt Q8K2P2).
T1 sequence: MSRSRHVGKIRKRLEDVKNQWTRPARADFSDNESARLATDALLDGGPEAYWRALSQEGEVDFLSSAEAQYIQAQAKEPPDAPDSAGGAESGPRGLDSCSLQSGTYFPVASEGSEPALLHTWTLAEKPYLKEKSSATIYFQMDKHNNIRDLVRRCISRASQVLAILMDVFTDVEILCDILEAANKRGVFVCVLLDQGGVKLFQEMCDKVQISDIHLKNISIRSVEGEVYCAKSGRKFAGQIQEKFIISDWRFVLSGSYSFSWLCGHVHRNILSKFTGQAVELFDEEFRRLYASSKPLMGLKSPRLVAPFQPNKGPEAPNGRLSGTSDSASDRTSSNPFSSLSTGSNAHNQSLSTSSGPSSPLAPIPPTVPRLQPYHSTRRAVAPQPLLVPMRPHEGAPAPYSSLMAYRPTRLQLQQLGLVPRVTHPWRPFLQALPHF
The experiment in a line: co-IP; 3T3-L1 cells transfected with 3xFLAG-CMV-10 plasmid (WT or DUP1669-deleted Fam83a), harvested 48 h later; lysate precleared with protein A/G dynabeads; anti-flag or anti-CK1 added, 4 °C overnight; protein A/G agarose 2 h; washed with cold PBS 3 times; Western blot. (A western blot detects proteins with antibodies after separation by electrophoresis.)

Assay [2] addresses casein kinase 1 (CK1) (mouse (endogenous in 3T3-L1)). Described as above.

No constants are given. Whether binding was seen depends on the method and setting. In cells and extracts the contact can be indirect. Binding can be weak; no strength is given. Sequences can lack the tags named with a protein.

On to “casein kinase 1 (CK1) (mouse (endogenous in 3T3-L1)) (enzyme)”, for which the binding result in assay [1] is reported as “binds”.

B1: FAM83A (family with sequence similarity 83 A), wild type, FLAG-tagged (protein, UniProt Q8K2P2-1 1-436)
chain: T1 sequence
Consider B1, for which the binding result in assay [2] is recorded as “binds”.
